These are yes or no findings as the source states them, for the method shown. Binding seen in cells or lysates may run through a third protein. Some entries that bind do so weakly or less than the wild type.
Target: Wnt3a (human (endogenous in A549)) (UniProt P56704)
Experiment: co-IP; lysates of OE-GPC5 A549 cells and control cells (20 mM Tris, 2.5 mM NaCl, 1% Triton X-100, pH 7.4); anti-Wnt3a antibody overnight at 4°C, Protein-G agarose, 5 washes (50 mM Tris, 150 mM NaCl, 0.1% Triton X-100, pH 7.4); SDS-PAGE

Protein sequences, listed by entry. Tags and fused reporters are not part of them. Residues count along the entry.
UniProt P56704, residues 19-352: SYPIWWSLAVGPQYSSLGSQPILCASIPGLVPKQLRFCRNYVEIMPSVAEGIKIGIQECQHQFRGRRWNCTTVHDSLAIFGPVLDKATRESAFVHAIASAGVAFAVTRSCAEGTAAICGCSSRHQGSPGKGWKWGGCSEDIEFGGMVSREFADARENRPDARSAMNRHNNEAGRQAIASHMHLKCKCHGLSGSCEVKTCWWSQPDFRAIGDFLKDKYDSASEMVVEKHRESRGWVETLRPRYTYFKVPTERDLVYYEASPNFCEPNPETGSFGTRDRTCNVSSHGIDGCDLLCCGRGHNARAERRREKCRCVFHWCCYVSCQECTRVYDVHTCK

- binding: binds
B1: Glypican-5 (protein, UniProt P78333 25-572)
chain: EGVQTCEEVRKLFQWRLLGAVRGLPDSPRAGPDLQVCISKKPTCCTRKMEERYQIAARQDMQQFLQTSSSTLKFLISRNAAAFQETLETLIKQAENYTSILFCSTYRNMALEAAASVQEFFTDVGLYLFGADVNPEEFVNRFFDSLFPLVYNHLINPGVTDSSLEYSECIRMARRDVSPFGNIPQRVMGQMGRSLLPSRTFLQALNLGIEVINTTDYLHFSKECSRALLKMQYCPHCQGLALTKPCMGYCLNVMRGCLAHMAELNPHWHAYIRSLEELSDAMHGTYDIGHVLLNFHLLVNDAVLQAHLNGQKLLEQVNRICGRPVRTPTQSPRCSFDQSKEKHGMKTTTRNSEETLANRRKEFINSLRLYRSFYGGLADQLCANELAAADGLPCWNGEDIVKSYTQRVVGNGIKAQSGNPEVKVKGIDPVINQIIDKLKHVVQLLQGRSPKPDKWELLQLGSGGGMVEQVSGDCDDEDGCGGSGSGEVKRTLKITDWMPDDMNFSDVKQIHQTDTGSTLDTTGAGCAVATESMTFTLISVVMLLPGIW
